# Assay results taken from PubChem BioAssay AID2284372 (EPA ToxCast).
# Amino acid sequences for entries named in this document (tags omitted). A change or cut given only in a name is not applied to a line headed by its entry.
# UniProt P04150: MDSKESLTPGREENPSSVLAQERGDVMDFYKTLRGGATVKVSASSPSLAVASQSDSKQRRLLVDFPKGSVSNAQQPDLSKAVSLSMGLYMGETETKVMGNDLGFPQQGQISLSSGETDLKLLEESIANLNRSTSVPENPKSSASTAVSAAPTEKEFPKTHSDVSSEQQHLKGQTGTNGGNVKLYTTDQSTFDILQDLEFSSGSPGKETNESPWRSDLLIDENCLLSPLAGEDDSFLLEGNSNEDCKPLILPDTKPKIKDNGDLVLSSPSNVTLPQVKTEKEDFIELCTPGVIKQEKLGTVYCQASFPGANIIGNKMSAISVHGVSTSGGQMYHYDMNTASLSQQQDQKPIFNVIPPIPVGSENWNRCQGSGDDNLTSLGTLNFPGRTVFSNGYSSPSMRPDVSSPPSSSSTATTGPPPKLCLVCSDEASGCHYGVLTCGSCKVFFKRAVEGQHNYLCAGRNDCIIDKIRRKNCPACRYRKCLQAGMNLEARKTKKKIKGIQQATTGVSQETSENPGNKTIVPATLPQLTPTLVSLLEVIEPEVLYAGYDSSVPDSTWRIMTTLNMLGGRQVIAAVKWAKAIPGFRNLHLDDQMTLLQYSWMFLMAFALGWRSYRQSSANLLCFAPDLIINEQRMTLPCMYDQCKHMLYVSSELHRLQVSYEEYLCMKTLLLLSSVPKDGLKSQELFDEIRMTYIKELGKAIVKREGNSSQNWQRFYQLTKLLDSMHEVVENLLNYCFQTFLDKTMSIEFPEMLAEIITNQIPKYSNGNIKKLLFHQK
# This is a selection; strong and weak results do not stand in their true shares. Results filed as inconclusive are left out. The source made the active and inactive calls. Rule for the calls: active = hit-call score of the fitted dose curve at least 0.9, where 1 is the maximum; inconclusive = response in the unintended direction; inactive = score below 0.9.
# Biological target: Glucocorticoid receptor (Homo sapiens) (UniProt P04150)
# Assay: ATG_hGR_EcoTox2: Attagene TRANS-FACTORIAL EcoTox-2 HepG2 Assay for human Glucocorticoid Receptor (GR)
# Experimental: ATG_EcoTox2 is a cell-based, multiplexed assay created by modifying the existing Attagene TRANS-FACTORIAL system to include a panel of nuclear receptors from some or all the following species: human (Homo sapiens), african clawed frog (Xenopus laevis), rainbow trout (Oncorhynchus mykiss), japanese medaka (Oryzias latipes), and zebrafish (Danio rerio). The ECOTOX2-FACTORIAL format uses HepG2, a human liver cell line, with measurements taken at 24 hours after chemical dosing in a 24-well plate. ATG_hGR_EcoTox2 is one of 29 assay components calculated in the ATG_EcoTox2 assay. It is designed to make measurements of mRNA induction, a form of inducible reporter, as detected with fluorescence intensity signals by Reverse transcription polymerase chain reaction (RT-PCR) and Capillary electrophoresis technology.The assay endpoint ATG_hGR_EcoTox2 was analyzed in the positive analysis fitting direction relative to DMSO as the negative control and baseline of activity. Using a type of inducible reporter, measures of mRNA for gain-of-signal activity can be used to understand the reporter gene at the transcription factor-level as they relate to the gene for glucocorticoid receptor. Furthermore, this assay endpoint can be referred to as a primary readout, because this assay has produced multiple assay endpoints where this one serves a reporter gene function. […]
smiles,measurement,value
C[C@@H]1C[C@H]2[C@@H]3CCC4=CC(=O)C=C[C@]4(C)[C@@]3(F)[C@@H](O)C[C@]2(C)[C@@]1(O)C(=O)COP(=O)(O)O,AC50,active: 4.57 nM
